Test results reported in patent US20260217692A1 (Ascentage Pharma (Suzhou) Co., Ltd., priority 2023, published 2026).
Counter-ions that a name gives are not always drawn. The source gives many values for each of these; only a part stands here.

Experiments:
Assay type in all cases: physicochemical
[1] = Polymorph screening test, suspension method (crystal form by XRPD after stirring in solvent); details: suspension method, 40° C., 3 days
Method: (or 50° C.) for 3 days in the dark and centrifuged to remove the supernatant; the resulting precipitate was dried under vacuum (25° C., −0.1 MPa); and the resulting solid was collected and subjected to the XRPD test. The results are as follows:
(or 50° C./80° C.) for 3 days in the dark and centrifuged to remove the supernatant; and the resulting precipitate was dried under vacuum (25° C., −0.1 MPa).
(or 50° C.) for 3 days in the dark and centrifuged to remove the supernatant; and the resulting precipitate was dried under vacuum (25° C., −0.1 MPa).

[2] = Polymorph screening test, volatilization method (crystal form by XRPD); details: slow volatilization at room temperature
Description: (§1) The results are as follows:
A total of 15 slow volatilization tests were set up using different solvent systems. […] The resulting solid was collected and subjected to the XRPD test.
A total of 10 slow volatilization tests were set up using different solvent systems. […] The resulting solid was collected and subjected to the XRPD test.
A total of 3 slow volatilization tests were set up using different solvent systems. […] The resulting solid was collected and subjected to the XRPD test.

[3] = Polymorph screening test, poor solvent / anti-solvent method (crystal form by XRPD); details: anti-solvent method, stirred 5 days
Description: as §1

[4] = good solvent DMSO, poor solvent Water
[5] = good solvent DMSO, poor solvent n-Heptane

Row | SMILES | Crystal form (XRPD) ([1]; 1,4-Dioxane) | Crystal form (XRPD) ([1]; Acetone/water (1:2)) | Crystal form (XRPD) ([1]; Acetone) | Crystal form (XRPD) ([1]; Acetonitrile/water (1:1)) | Crystal form (XRPD) ([1]; Acetonitrile) | Crystal form (XRPD) ([1]; Dichloromethane) | Crystal form (XRPD) ([1]; Ethanol) | Crystal form (XRPD) ([1]; Ethyl acetate) | Crystal form (XRPD) ([1]; Methanol/water (3:1)) | Crystal form (XRPD) ([1]; Methanol) | Crystal form (XRPD) ([1]; Tetrahydrofuran) | Crystal form (XRPD) ([1]; Water) | Crystal form (XRPD) ([1]; n-Heptane) | Crystal form (XRPD) ([2]; DCM) | Crystal form (XRPD) ([2]; DCM/MeOH(1:1, v/v)) | Crystal form (XRPD) ([2]; DCM/acetone (1:1, v/v)) | Crystal form (XRPD) [3, 4] | Crystal form (XRPD) [3, 5] | other results
1 | Cc1cc(Nc2ncc(Cl)c(Nc3ccccc3S(=O)(=O)C(C)C)n2)c(OC(C)C)cc1C1=CCN(C2CCOCC2)CC1 [one equivalent of succinate crystal form D] | Crystal form D | Crystal form D | Crystal form D | Crystal form D | Crystal form D | Crystal form D | Crystal form D | Crystal form D | Crystal form D | Crystal form D | Crystal form B | Crystal form D | Crystal form D | Crystal form D | Crystal form D | Crystal forms A + D | No solid sample was obtained | Crystal form D | –
2 | Cc1cc(Nc2ncc(Cl)c(Nc3ccccc3S(=O)(=O)C(C)C)n2)c(OC(C)C)cc1C1=CCN(C2CCOCC2)CC1 [one equivalent of tartrate crystal form B] | Crystal form B | No solid sample was obtained | Crystal form B | No solid sample was obtained | Crystal form C | No solid sample was obtained | Crystal form E | Crystal form D | No solid sample was obtained | Crystal form F | Crystal form B | No solid sample was obtained | Crystal form B | No solid sample was obtained | Amorphous form | – | – | – | Crystal form (XRPD) ([2]; DCM/acetone (2:1, v/v)): Amorphous form; Crystal form (XRPD) ([3]; good solvent DCM, poor solvent Water): No solid sample was obtained; Crystal form (XRPD) ([3]; good solvent DCM, poor solvent n-Heptane): Crystal form C
3 | Cc1cc(Nc2ncc(Cl)c(Nc3ccccc3S(=O)(=O)C(C)C)n2)c(OC(C)C)cc1C1=CCN(C2CCOCC2)CC1 [one equivalent of citrate crystal form B] | Crystal form B | Crystal form B | Crystal form B | Crystal form B | Crystal form B | Crystal form B | Crystal form B | Crystal form B | Crystal form B | Crystal form B | Crystal form B | Crystal form B | Crystal form B | No solid sample was obtained | Crystal form B | No solid sample was obtained | Crystal form B | No solid sample was obtained | –
